Literature values, collected in US20130130299A1, “ELECT[…] CYTOMETRY” (University of Utah Research Foundation, priority 2009, published 2013).
At least one compound was matched to its structure with a doubt left.

Test system: PC12 cells
Settings: dexamethasone-treated cells, cited from earlier work

SMILES: C[C@@H]1C[C@H]2[C@@H]3CCC4=CC(=O)C=C[C@]4(C)[C@@]3(F)[C@@H](O)C[C@]2(C)[C@@]1(O)C(=O)CO [dexamethasone]
- cube root of quantal yield, existing data (existing data): 6.7±1.6 zmol^1/3
- peak height, prior study (prior study): 31.4±5.6 pA
